Source: PMC11143218, “Evolved histone tail regulates 53BP1 recruitment at damaged chromatin” (Nature Communications, 2024)
No constants are given. Whether binding was seen depends on the method and setting. In cells and extracts the contact can be indirect. Binding calls can cover weak binding; strength is not graded here.

Target: T1, biotinylated phosphorylated S139 H2AX C-terminal tail peptide (human)
T1 sequence (peptide, biotin on the N-terminus; phosphoserine (pS) at S139): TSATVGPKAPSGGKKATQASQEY
Test: pull-down; HEK293T lysates (myc-tagged expression vectors, NETN buffer) incubated with 2.5 μg biotinylated peptide and 10 μL streptavidin beads, 1 h at 4 °C; washed three times with NETN; western blot; only the target purified

binding: binds
Substance: MDC1 tandem BRCT domain (human) (domain or fragment)
